Data on 3 substances can be found in paper PMC6969153.

Chains of the proteins cited; added tags and fusions are not shown.
UniProt Q14145: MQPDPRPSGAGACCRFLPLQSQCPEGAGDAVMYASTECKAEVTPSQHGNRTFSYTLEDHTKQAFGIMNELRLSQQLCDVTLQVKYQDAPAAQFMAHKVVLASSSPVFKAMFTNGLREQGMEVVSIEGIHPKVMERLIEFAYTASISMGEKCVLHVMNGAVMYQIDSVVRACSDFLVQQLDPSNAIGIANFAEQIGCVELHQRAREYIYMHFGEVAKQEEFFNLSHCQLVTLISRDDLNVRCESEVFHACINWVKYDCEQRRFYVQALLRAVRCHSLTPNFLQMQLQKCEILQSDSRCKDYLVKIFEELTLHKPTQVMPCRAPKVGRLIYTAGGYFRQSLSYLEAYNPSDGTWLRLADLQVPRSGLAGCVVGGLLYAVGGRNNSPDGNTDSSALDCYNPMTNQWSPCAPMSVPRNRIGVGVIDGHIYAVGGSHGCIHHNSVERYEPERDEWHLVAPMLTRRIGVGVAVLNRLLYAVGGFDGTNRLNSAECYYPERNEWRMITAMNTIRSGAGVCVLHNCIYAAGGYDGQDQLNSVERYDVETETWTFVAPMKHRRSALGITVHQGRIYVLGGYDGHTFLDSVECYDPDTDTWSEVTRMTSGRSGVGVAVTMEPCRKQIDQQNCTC
UniProt Q14258: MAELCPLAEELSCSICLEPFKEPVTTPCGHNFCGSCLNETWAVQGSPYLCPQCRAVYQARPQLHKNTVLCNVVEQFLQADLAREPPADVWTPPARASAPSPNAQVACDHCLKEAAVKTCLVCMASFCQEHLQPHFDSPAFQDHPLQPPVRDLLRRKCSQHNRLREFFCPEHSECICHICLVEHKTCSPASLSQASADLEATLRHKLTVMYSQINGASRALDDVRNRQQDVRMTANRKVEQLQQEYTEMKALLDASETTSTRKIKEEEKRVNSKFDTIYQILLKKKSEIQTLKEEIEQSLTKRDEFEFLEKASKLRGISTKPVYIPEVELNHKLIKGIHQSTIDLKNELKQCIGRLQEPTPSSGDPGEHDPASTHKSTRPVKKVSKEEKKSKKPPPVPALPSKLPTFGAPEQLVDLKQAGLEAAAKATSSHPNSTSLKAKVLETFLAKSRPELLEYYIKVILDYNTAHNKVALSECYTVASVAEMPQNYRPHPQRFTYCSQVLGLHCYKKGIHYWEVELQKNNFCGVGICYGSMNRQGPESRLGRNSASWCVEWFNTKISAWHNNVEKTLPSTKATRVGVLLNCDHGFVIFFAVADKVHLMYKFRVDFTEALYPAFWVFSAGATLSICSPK

No constants are given. Whether binding was seen depends on the method and setting. Binding seen in cells or lysates may run through a third protein. Some entries that bind do so weakly or less than the wild type.

The target in one test is GST-Keap1 (UniProt Q14145). Put plainly: pull-down; in vitro GST pulldown, GST-Keap1 (GST as control) with F-TRIM25.
For test [1], the target named is Keap1 (endogenous) (human (endogenous in HCT116 and Huh7)) (UniProt Q14145). Put plainly: co-IP; endogenous TRIM25 and Keap1 in HCT116 and Huh7 cells, treated with or without TG (1 uM) for 12 h.
For test [2], the target named is Keap1, transfected in Huh7 cells (Fig. 3q) (UniProt Q14145). Put plainly: co-IP; Huh7 cells transfected with the indicated plasmids (TRIM25, Keap1 and Keap1 mutants); HA-IP and immunoblot. In general terms: A western blot detects proteins with antibodies after separation by electrophoresis.

On to “Flag-TRIM25 (in vitro GST pulldown) (from UniProt Q14258 1-630)”, for which, in the test with GST-Keap1, the binding result is reported as “binds”.

As to “TRIM25 (endogenous) (from UniProt Q14258 1-630)”, in test [1], the binding result was “binds”. Turning to “TRIM25, full-length, overexpressed in Huh7 cells (from UniProt Q14258 1-630)”, the binding result in test [2] was “binds”.
